# ± gives the standard deviation of the averaged measurements. Only a part is listed here, and it is no random draw.
# Legend:
# Assay in all cases: NP40-soluble protein abundance relative to vehicle (solubility fold change) (ratio); higher = more soluble protein in presence of AMP-PNP
# [1] = biological target: T1, UniProt Q96J84 and related entries
# T1 sequence (whole entry): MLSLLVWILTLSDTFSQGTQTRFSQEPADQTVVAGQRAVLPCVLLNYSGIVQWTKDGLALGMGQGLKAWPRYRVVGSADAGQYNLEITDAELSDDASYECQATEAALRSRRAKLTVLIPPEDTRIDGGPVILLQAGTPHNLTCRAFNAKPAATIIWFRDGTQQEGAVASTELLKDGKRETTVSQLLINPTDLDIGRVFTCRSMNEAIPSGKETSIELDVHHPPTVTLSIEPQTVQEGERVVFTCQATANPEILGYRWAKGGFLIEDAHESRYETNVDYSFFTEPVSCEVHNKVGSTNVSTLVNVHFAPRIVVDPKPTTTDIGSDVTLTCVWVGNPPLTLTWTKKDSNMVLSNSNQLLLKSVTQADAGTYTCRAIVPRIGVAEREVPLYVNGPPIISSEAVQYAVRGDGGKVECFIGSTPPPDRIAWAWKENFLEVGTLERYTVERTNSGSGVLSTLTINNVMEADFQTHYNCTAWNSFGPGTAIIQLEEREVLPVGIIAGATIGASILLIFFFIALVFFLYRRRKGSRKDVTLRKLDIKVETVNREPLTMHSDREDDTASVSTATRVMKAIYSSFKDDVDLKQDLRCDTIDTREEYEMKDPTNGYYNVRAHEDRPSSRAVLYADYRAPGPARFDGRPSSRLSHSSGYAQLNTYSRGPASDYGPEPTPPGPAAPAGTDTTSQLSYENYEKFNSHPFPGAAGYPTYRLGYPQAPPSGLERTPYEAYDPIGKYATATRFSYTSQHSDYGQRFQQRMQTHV
# Summary of the method: (§1)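 Eight concentrations, 0.1 to 10 mM, were tested on Jurkat crude lysate for 10 min at room temperature and then 3 min at 37 °C, in three independent experiments. The lysate was solubilised with 0.8% NP40 and benzonase, ultracentrifuged, and the supernatant TMT-labelled for LC-MS/MS. Each value is the fold change against the detergent-processed vehicle in its own replicate, from vsn-normalised intensities.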
# [2] = biological target: T2, UniProt Q96JY6 and related entries
# T2 sequence (whole entry): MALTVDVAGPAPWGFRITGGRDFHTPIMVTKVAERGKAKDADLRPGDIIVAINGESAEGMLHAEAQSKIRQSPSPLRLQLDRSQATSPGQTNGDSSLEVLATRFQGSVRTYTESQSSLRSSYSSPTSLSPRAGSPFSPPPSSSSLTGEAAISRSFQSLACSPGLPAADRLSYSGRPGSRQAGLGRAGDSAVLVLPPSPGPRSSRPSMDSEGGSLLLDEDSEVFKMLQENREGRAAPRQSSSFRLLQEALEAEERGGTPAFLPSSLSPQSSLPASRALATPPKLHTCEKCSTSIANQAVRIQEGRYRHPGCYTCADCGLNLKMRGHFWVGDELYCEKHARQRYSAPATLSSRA
# Summary of the method: as §1
# UniProt Q96L50 = biological target: T3, UniProt Q96L50
# T3 sequence (whole entry): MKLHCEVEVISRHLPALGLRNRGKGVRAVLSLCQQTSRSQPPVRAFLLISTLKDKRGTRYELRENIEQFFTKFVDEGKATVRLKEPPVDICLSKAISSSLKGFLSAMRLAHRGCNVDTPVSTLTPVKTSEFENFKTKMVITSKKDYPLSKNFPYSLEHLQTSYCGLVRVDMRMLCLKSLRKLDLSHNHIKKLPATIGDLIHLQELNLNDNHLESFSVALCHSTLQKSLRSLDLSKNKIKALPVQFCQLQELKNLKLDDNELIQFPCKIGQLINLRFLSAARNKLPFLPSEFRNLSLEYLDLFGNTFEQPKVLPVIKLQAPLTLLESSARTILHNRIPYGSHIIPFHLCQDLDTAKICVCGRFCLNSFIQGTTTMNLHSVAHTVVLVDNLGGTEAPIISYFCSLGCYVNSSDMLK
# Summary of the method: as §1
# [3] = biological target: T4, UniProt Q96QD9 and related entries
# T4 sequence (whole entry): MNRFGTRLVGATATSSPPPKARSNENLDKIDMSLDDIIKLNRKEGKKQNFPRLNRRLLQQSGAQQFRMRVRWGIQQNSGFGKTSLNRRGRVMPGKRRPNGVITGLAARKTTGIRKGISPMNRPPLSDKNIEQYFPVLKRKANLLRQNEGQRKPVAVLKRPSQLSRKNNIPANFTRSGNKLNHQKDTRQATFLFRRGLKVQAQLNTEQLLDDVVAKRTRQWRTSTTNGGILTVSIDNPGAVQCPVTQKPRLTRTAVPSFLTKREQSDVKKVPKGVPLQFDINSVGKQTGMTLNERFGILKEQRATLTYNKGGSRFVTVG
# Summary of the method: as §1
# [4] = biological target: T5, UniProt Q96QG7 and related entries
# T5 sequence (whole entry): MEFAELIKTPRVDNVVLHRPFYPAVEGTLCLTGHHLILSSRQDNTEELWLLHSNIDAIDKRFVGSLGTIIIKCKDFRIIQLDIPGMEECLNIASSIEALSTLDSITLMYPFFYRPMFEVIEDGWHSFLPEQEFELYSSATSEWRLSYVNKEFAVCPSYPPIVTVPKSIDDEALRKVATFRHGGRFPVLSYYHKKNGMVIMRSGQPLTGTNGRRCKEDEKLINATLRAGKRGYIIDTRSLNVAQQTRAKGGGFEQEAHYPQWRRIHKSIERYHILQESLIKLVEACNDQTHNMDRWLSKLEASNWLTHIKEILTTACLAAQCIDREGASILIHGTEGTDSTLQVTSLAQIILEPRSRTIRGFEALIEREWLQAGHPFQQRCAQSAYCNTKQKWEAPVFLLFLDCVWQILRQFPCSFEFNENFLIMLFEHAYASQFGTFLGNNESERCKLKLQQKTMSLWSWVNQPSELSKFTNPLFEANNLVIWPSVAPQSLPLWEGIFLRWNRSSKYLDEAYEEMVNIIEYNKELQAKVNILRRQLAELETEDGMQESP
# Summary of the method: as §1
smiles,measurement,setting,value
Nc1ncnc2c1ncn2[C@@H]1O[C@H](COP(=O)(O)OP(=O)(O)NP(=O)(O)O)[C@@H](O)[C@H]1O [adenylyl imidodiphosphate],NP40-soluble protein abundance,[1]; concentration: 1mM,1.02 ± 0.045
same,NP40-soluble protein abundance,[1]; concentration: 2mM,1.01 ± 0.04
same,NP40-soluble protein abundance,[1]; concentration: 4mM,1.01 ± 0.03
same,NP40-soluble protein abundance,[1]; concentration: 6mM,1.03 ± 0.046
same,NP40-soluble protein abundance,[1]; concentration: 8mM,1.02 ± 0.026
same,NP40-soluble protein abundance,[1]; concentration: 10mM,1.01 ± 0.026
same,NP40-soluble protein abundance,[2]; concentration: 1mM,1.01 ± 0.021
same,NP40-soluble protein abundance,[2]; concentration: 2mM,1.06 ± 0.031
same,NP40-soluble protein abundance,[2]; concentration: 4mM,1.04 ± 0.0067
same,NP40-soluble protein abundance,[2]; concentration: 6mM,1 ± 0.013
same,NP40-soluble protein abundance,[2]; concentration: 8mM,0.994 ± 0.023
same,NP40-soluble protein abundance,[2]; concentration: 10mM,0.994 ± 0.028
same,NP40-soluble protein abundance,UniProt Q96L50; concentration: 1mM,0.975 ± 0.042
same,NP40-soluble protein abundance,UniProt Q96L50; concentration: 2mM,0.926 ± 0.017
same,NP40-soluble protein abundance,UniProt Q96L50; concentration: 4mM,0.97 ± 0.042
same,NP40-soluble protein abundance,UniProt Q96L50; concentration: 6mM,1.02 ± 0.034
same,NP40-soluble protein abundance,UniProt Q96L50; concentration: 8mM,0.993 ± 0.06
same,NP40-soluble protein abundance,UniProt Q96L50; concentration: 10mM,0.981 ± 0.049
same,NP40-soluble protein abundance,[3]; concentration: 1mM,0.9791 ± 0.0066
same,NP40-soluble protein abundance,[3]; concentration: 2mM,1.03 ± 0.0042
same,NP40-soluble protein abundance,[3]; concentration: 4mM,1.05 ± 0.047
same,NP40-soluble protein abundance,[3]; concentration: 6mM,1.07 ± 0.1
same,NP40-soluble protein abundance,[3]; concentration: 8mM,1.08 ± 0.075
same,NP40-soluble protein abundance,[3]; concentration: 10mM,1.12 ± 0.048
same,NP40-soluble protein abundance,[4]; concentration: 1mM,0.955 ± 0.01
same,NP40-soluble protein abundance,[4]; concentration: 2mM,0.92 ± 0.029
same,NP40-soluble protein abundance,[4]; concentration: 4mM,0.929 ± 0.0085
same,NP40-soluble protein abundance,[4]; concentration: 6mM,0.94 ± 0.012
same,NP40-soluble protein abundance,[4]; concentration: 8mM,0.957 ± 0.027
same,NP40-soluble protein abundance,[4]; concentration: 10mM,0.9176 ± 0.0091

# Rewritten with tabs: entries from further up
smiles	measurement	setting	value
Nc1ncnc2c1ncn2[C@@H]1O[C@H](COP(=O)(O)OP(=O)(O)NP(=O)(O)O)[C@@H](O)[C@H]1O [adenylyl imidodiphosphate]	NP40-soluble protein abundance	[1]; concentration: 6mM	1.03 ± 0.046
same	NP40-soluble protein abundance	[1]; concentration: 8mM	1.02 ± 0.026
same	NP40-soluble protein abundance	[1]; concentration: 10mM	1.01 ± 0.026
same	NP40-soluble protein abundance	[2]; concentration: 1mM	1.01 ± 0.021
same	NP40-soluble protein abundance	[2]; concentration: 2mM	1.06 ± 0.031
same	NP40-soluble protein abundance	[2]; concentration: 4mM	1.04 ± 0.0067
same	NP40-soluble protein abundance	[2]; concentration: 6mM	1 ± 0.013
same	NP40-soluble protein abundance	[2]; concentration: 8mM	0.994 ± 0.023
